Results published in patent US7074807B2, “Compositions and methods for inducing cell death” (Georgetown University, priority 1998, dated 2006).
For at least one compound, name, drawing or mass did not settle the structure. Some of these results come from one statement about several compounds together.

Tests used:
[1] = Tolerated dose in mice
[2] = tested on: Raf-1; experiment: Raf-1 tyrosine phosphorylation (anti-Raf-1 IP, anti-PY immunoblot, densitometry); format: cell-based, human; details: 10 mM, 15 min, MDA-MB 231 cells
[3] = tested on: Raf-1 protein kinase; experiment: Raf-1 protein kinase activity (kinase cascade assay or Syntide-2 phosphorylation assay); format: cell-based, human; details: 10 mM, MDA-MB 231 cells

| SMILES | tolerated intraperitoneal dose [1] | increase in the level of tyrosine phosphorylated Raf-1 (RafP) [2] | increase in the Raf-1 protein kinase activity [3] |
| --- | --- | --- | --- |
| CC1(C)CCCC(C)(C)N1[O] [tempo, 2,2,6,6-tetramethylpiperidine-N-oxyl] | 5 mg/kg to 1000 | 5–8 fold | 2–3 fold |
| CC1(C)CC(O)CC(C)(C)N1[O] [tempol, 4-hydroxy-tempo, reference compound] |  | 5–8 fold | 2–3 fold |
